This passage reports binding results from publication PMC8764522.

No constants are given. Whether binding was seen depends on the method and setting. Binding can be weak; no strength is given.

The assay deals with PfsE^W18A (filamentous bacteriophage Pf4 (prophage of P. aeruginosa PAO1)). The experiment in a line: two-hybrid; bacterial adenylate cyclase two-hybrid (BACTH) in E. coli BTH101; fusions in pKT25 and pUT18C; X-gal and MacConkey agar plates with 1 mM IPTG, 30°C, 48 h; read-out β-galactosidase activity (colour change).

B1: PilC, type IV pili inner-membrane platform protein (protein, UniProt P22609 1-374)
chain: MLVKAHLRKQGINPLKVRKKGISLLGAGKKVKPMDIALFTRQMATMMGAGVPLLQSFDIIGEGFDNPNMRKLVDEIKQEVSSGNSLANSLRKKPQYFDELYCNLVDAGEQSGALENLLDRVATYKEKTESLKAKIRKAMTYPIAVIIVALIVSAILLIKVVPQFQSVFQGFGAELPAFTQMVVNLSEFLQEWWLAVIVGVGAIGFTFKELHKRSKKFRDTLDRTILKLPIFGGIVYKSAVARYARTLSTTFAAGVPLVDALDSVSGATGNIVFKNAVSKIKQDVSTGMQLNFSMRTTSVFPNMAIQMTAIGEESGSLDEMLSKVASYYEEEVDNAVDNLTTLMEPMIMAVLGVLVGGLIVAMYLPIFQLGNVVG
On to B1, for which the binding entry is recorded as “binds”.
